# Results from PubChem BioAssay AID662 (National Center for Advancing Translational Sciences (NCATS), 2007).
# The other results are listed elsewhere or left out. These are further read-outs of the screen, such as a control signal, another cell line or another target. No call is given for them. The list favours compounds with an active or inconclusive main result. Words in brackets tell the shape of the fitted curve; partial curves, single points and poor fits give uncertain potencies.
# Assay: Cell signaling CRE-BLA (Fsk stim)
# Settings: CHO CRE-bla reporter (cAMP response element driving beta-lactamase), forskolin EC10, beta-lactamase ratio; measured here: 460 nm blue channel
# Procedure, shortened: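 qHTS titration format; CRE-bla CHO reporter; stimulus EC10 NKH 477, a water-soluble forskolin. Read: CCF4 460/530 nm ratio. Potency expressed as AC50 for activators or inhibitors.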
row,Compound,AC50
1,Cc1cc(=O)oc2cc(OC(C)C)ccc12,"10 µM [rising, single point]"
2,CC1(C)OC(=O)C(=CNn2cnc3ccccc3c2=O)C(=O)O1,"25.1 µM [rising, single point]"
3,Cc1cc(C)c(NC(=O)CS(=O)CC(=O)N2CCN(c3ccc(F)cc3)CC2)c(C)c1 (stereo not drawn),"3.16 µM [rising, single point]"
4,O=c1c(CCc2ccccc2)nc2cnc(N3CCNCC3)nc2n1Cc1ccc(F)cc1,"15.8 µM [rising, single point]"
5,COc1ccc(NC(=O)C2=C(C)NC(=O)NC2c2cccc(OC)c2OC)c(OC)c1 (stereo not drawn),"1 µM [falling, partial curve, poor fit]"
6,Cc1nc2ccccc2c2oc(C(=O)NC3CC3)cc12,"7.94 µM [rising, partial curve]"
7,N#Cc1cc2c(nc1SCc1cccnc1)CCCC2,"12.6 µM [rising, partial curve]"
8,COC(=O)[C@@H]1[C@H]2C[C@H]3c4[nH]c5cc(OC)ccc5c4CCN3C[C@@H]2C[C@@H](OC(=O)c2cc(OC)c(OC)c(OC)c2)[C@@H]1OC,"0.0251 µM [rising, full curve]"
9,O=C(Nc1cccc2ncccc12)c1cccnc1,"25.1 µM [rising, single point]"
10,Cc1ccc2nc(NC(=O)C3CCCN(S(=O)(=O)c4cnc[nH]4)C3)sc2c1 (stereo not drawn),"10 µM [falling, partial curve]"
11,O=C(O)c1ccc2cc[nH]c2c1,"6.31 µM [rising, partial curve]"
12,CC(C)[C@H](NC(=O)NC1CCCC1)C(=O)O,"10 µM [falling, partial curve, poor fit]"
13,c1ccc2c(Nc3ccncc3)nc(-c3ccc4c(c3)OCO4)nc2c1,"2 µM [rising, full curve]"
14,CN(C)CCCNC(=O)c1ccc2[nH]c3ccccc3c2c1,"0.316 µM [falling, partial curve]"
15,Cc1onc(-c2ccccc2Cl)c1C(=O)NCc1ccco1,"12.6 µM [falling, single point]"
16,COc1ccc(C(=O)Nc2ccncc2)cc1OC,"5.01 µM [rising, partial curve]"
17,CCOC(=O)c1c(NC(=O)CSc2n[nH]c(N)n2)sc(CC)c1C,"7.94 µM [rising, partial curve]"
18,CN1CCN(C(CNS(=O)(=O)c2ccc(Cl)cc2)c2cccnc2)CC1 (stereo not drawn),"5.01 µM [falling, partial curve, poor fit]"
19,Cc1ccc(C[C@H](Cc2nc3ccccc3[nH]2)c2nc3ccccc3[nH]2)cc1,"15.8 µM [rising, partial curve]"
20,O=C(NCc1cccs1)C1CCN(S(=O)(=O)c2cccs2)CC1,"0.126 µM [falling, full curve, poor fit]"
21,Cc1nc2ccc(NC(=O)Nc3ccnc4cccnc34)cc2o1,"31.6 µM [falling, single point]"
22,CCC(CC)C(=O)Nc1cccc(-c2nc3ccccc3o2)c1,"12.6 µM [rising, single point]"
23,Cc1ccc(-c2ccc(SCC(=O)Nc3nonc3C)nn2)cc1,"0.398 µM [falling, partial curve]"

row,Compound,AC50
1,O=C(Nc1ccc2nsnc2c1)c1cccs1,"15.8 µM [rising, single point]"
2,Cc1nc2oc3c(NCc4ccccc4)ncnc3c2c2c1COC(C)(C)C2,"10 µM [rising, partial curve]"
3,COc1ccc(CNc2ccnc(-c3cccc(C#N)c3)n2)c(OC)c1,"3.16 µM [rising, single point]"
4,CSc1nc2ccccc2n1Cc1cccc(F)c1,"5.01 µM [rising, partial curve]"
5,CCCOc1ccc(C(=O)N2CCN(c3ccc(NC(=O)CC)cc3Cl)CC2)cc1,"0.0158 µM [falling, full curve, poor fit]"
6,COC(=O)c1cc(OC)c(OC)cc1NC(=O)CCc1ccc(C)o1,"12.6 µM [rising, single point]"
7,CCOc1ccc(C(C)=O)cc1N1C(=O)C2C3C=CC(C3)C2C1=O (stereo not drawn),"0.00316 µM [falling, full curve, poor fit]"
8,CCCn1c(C)nc2c(N(CCN(C)C)Cc3ccccc3)nc(C)nc21,"10 µM [rising, partial curve]"
9,C=C(C)Cn1c(COc2ccccc2)nnc1SCC(=O)O,"25.1 µM [rising, single point]"
10,c1ccc(CNc2nc3ccccc3n3cnnc23)nc1,"10 µM [rising, partial curve]"
11,CCc1cc2c(=O)c(-c3ccon3)c(N)oc2cc1OC,"12.6 µM [rising, single point]"
12,N=c1c(C(=O)NCc2ccc(F)cc2)cc2c(=O)n3ccccc3nc2n1CCCN1CCOCC1,"3.16 µM [rising, full curve]"
13,Nc1cc(C(=O)O)ccc1Nc1ccccc1,"0.398 µM [rising, partial curve]"
14,Cc1nc2sccn2c1-c1nc(C2CC2)c(C(=O)c2ccc3c(c2)NC(=O)CO3)s1,"2.51 µM [rising, full curve]"
15,CCOC(=O)N1CCC(NC(=O)CCN2C(=O)C3C4C=CC(C4)C3C2=O)CC1 (stereo not drawn),"0.0251 µM [falling, full curve]"
16,CCOC(=O)Cc1csc(NC(=O)c2ccc(S(=O)(=O)N3CCCC3)cc2)n1,"10 µM [rising, partial curve]"
17,CC(=O)c1c(C)[nH]c(C(=O)NCCC2=CCCCC2)c1C,"5.01 µM [rising, single point]"
18,COc1cc(NC(=O)C2CCCN2S(=O)(=O)c2cccc3cccnc23)cc(OC)c1OC (stereo not drawn),"5.01 µM [rising, partial curve]"
19,COCCn1c(SCc2ccc(C(=O)OC)o2)nc2ccccc2c1=O,"10 µM [rising, partial curve]"
20,O=C(Nc1ccc2c(c1)OCO2)C1CCCCN1S(=O)(=O)c1ccc(F)cc1 (stereo not drawn),"7.94 µM [falling, partial curve]"
21,Cn1cc(-c2nc3cnc(N4CCNCC4)nc3n(Cc3ccc(F)cc3)c2=O)c2ccccc21,"2.51 µM [rising, full curve]"
22,O=C(COC(=O)c1cccc(S(=O)(=O)N2CCOCC2)c1)Nc1ccc2c(c1)OCO2,"3.98 µM [falling, partial curve]"
23,CN(C)Cc1ccccc1-c1nc(NCc2cccs2)c2ccccc2n1,"3.98 µM [rising, partial curve]"

row,Compound,AC50
1,Fc1cccc(-c2cc3nc4c(c(N5CCOCC5)n3n2)CCCC4)c1,"2 µM [rising, partial curve]"
2,CCc1ccc(-c2nc(-c3ccncc3)no2)cc1,"1 µM [rising, single point]"
3,COc1ccc(C2C(C#N)=C(N)Oc3cc(O)ccc32)cc1OC (stereo not drawn),"10 µM [rising, partial curve]"
4,Cc1nn(-c2ccccc2)c2sc(C(=O)OCN3C(=O)c4ccccc4C3=O)cc12,"1.26 µM [rising, full curve]"
5,O=C(c1ccco1)c1cn[nH]c1-c1ccc(Cl)cc1O,"7.94 µM [falling, partial curve]"
6,CC1(C)C(=O)NCCN1C(=O)CSc1nccc(-c2ccc(Br)cc2)n1,"25.1 µM [rising, single point]"
7,N[C@H](C(=O)O)[C@@H]1C[C@@H]1C(=O)O,"31.6 µM [falling, single point]"
8,CCC(=O)N1CCN(c2ccccc2NC(=O)COc2cc(C)ccc2C(C)C)CC1,"25.1 µM [falling, single point]"
9,COc1ccc(NC(=O)CN2C(=O)C(C)Oc3ccccc32)c(OC)c1 (stereo not drawn),"5.01 µM [rising, single point]"
10,Cc1ccc(-c2cc(-c3ccc4c(c3)OCO4)c(C#N)c(N)n2)o1,"15.8 µM [rising, partial curve]"
11,Cc1cccc(Nc2nn3c(=O)c4ccccc4nc3s2)c1,"1.58 µM [rising, partial curve, poor fit]"
12,CC1CCC(NC(=O)CN2CCC(n3nnc4cc(F)ccc43)CC2)CC1 (stereo not drawn),"12.6 µM [rising, partial curve]"
13,COc1cc(C(=O)NCc2cn3ccccc3n2)cc(OC)c1OC,"15.8 µM [rising, partial curve]"
14,O=c1oc2c3c4c(cc2cc1-c1nc2ccccc2[nH]1)CCCN4CCC3,"10 µM [rising, partial curve]"
15,CC(C)(C)[C@@]1(O)CCN2C[C@@H]3c4ccccc4CCc4cccc(c43)[C@@H]2C1,"12.6 µM [falling, single point]"
16,CCNc1ncc2nc(-c3ccc(F)cc3)c(=O)n(CCc3ccccc3)c2n1,"0.794 µM [rising, full curve]"
17,CCCc1[nH]nc2c1C(c1ccc(OC)c(Cn3nc(C)c(Br)c3C)c1)C(C#N)=C(N)O2 (stereo not drawn),"25.1 µM [rising, single point]"
18,O=C(Nc1ccc(-c2noc(CCc3ccccc3)n2)cc1)c1cccnc1,"20 µM [falling, single point]"
19,COc1ccc(Cl)cc1NC(=O)CSc1ncnc2c1oc1ccccc12,"0.316 µM [rising, full curve]"
20,COc1cc(C(=O)NCc2ccco2)cc(OC)c1OC,"12.6 µM [rising, single point]"
21,COc1ccc(-c2ccc(SCC(=O)N3CCCC3)nn2)cc1OC,"12.6 µM [rising, partial curve]"
22,CCN(CC(=O)NC1CCS(=O)(=O)C1)C(=O)COc1ccccc1-c1ccccc1 (stereo not drawn),"0.01 µM [falling, full curve, poor fit]"

# Looked up by compound from the list above (2):
row,Compound,AC50
1,Fc1cccc(-c2cc3nc4c(c(N5CCOCC5)n3n2)CCCC4)c1,"2 µM [rising, partial curve]"
7,N[C@H](C(=O)O)[C@@H]1C[C@@H]1C(=O)O,"31.6 µM [falling, single point]"

# Reformatted tab-delimited: part of the list above.
row	Compound	AC50
6	CC1(C)C(=O)NCCN1C(=O)CSc1nccc(-c2ccc(Br)cc2)n1	25.1 µM [rising, single point]
7	N[C@H](C(=O)O)[C@@H]1C[C@@H]1C(=O)O	31.6 µM [falling, single point]
8	CCC(=O)N1CCN(c2ccccc2NC(=O)COc2cc(C)ccc2C(C)C)CC1	25.1 µM [falling, single point]
9	COc1ccc(NC(=O)CN2C(=O)C(C)Oc3ccccc32)c(OC)c1 (stereo not drawn)	5.01 µM [rising, single point]
